Test results taken from publication PMC3723668.
Results are given in words; binding and its absence hold for the method and conditions named. In cells and extracts the contact can be indirect. Binding can be weak; no strength is given. For some assays here: Where a sequence is shown, tags or fusion partners need not be part of it.

Chains of the proteins cited; added tags and fusions are not shown. Lines headed by an entry give the natural chain unless they say otherwise; changes in a name come on top.
UniProt Q15811: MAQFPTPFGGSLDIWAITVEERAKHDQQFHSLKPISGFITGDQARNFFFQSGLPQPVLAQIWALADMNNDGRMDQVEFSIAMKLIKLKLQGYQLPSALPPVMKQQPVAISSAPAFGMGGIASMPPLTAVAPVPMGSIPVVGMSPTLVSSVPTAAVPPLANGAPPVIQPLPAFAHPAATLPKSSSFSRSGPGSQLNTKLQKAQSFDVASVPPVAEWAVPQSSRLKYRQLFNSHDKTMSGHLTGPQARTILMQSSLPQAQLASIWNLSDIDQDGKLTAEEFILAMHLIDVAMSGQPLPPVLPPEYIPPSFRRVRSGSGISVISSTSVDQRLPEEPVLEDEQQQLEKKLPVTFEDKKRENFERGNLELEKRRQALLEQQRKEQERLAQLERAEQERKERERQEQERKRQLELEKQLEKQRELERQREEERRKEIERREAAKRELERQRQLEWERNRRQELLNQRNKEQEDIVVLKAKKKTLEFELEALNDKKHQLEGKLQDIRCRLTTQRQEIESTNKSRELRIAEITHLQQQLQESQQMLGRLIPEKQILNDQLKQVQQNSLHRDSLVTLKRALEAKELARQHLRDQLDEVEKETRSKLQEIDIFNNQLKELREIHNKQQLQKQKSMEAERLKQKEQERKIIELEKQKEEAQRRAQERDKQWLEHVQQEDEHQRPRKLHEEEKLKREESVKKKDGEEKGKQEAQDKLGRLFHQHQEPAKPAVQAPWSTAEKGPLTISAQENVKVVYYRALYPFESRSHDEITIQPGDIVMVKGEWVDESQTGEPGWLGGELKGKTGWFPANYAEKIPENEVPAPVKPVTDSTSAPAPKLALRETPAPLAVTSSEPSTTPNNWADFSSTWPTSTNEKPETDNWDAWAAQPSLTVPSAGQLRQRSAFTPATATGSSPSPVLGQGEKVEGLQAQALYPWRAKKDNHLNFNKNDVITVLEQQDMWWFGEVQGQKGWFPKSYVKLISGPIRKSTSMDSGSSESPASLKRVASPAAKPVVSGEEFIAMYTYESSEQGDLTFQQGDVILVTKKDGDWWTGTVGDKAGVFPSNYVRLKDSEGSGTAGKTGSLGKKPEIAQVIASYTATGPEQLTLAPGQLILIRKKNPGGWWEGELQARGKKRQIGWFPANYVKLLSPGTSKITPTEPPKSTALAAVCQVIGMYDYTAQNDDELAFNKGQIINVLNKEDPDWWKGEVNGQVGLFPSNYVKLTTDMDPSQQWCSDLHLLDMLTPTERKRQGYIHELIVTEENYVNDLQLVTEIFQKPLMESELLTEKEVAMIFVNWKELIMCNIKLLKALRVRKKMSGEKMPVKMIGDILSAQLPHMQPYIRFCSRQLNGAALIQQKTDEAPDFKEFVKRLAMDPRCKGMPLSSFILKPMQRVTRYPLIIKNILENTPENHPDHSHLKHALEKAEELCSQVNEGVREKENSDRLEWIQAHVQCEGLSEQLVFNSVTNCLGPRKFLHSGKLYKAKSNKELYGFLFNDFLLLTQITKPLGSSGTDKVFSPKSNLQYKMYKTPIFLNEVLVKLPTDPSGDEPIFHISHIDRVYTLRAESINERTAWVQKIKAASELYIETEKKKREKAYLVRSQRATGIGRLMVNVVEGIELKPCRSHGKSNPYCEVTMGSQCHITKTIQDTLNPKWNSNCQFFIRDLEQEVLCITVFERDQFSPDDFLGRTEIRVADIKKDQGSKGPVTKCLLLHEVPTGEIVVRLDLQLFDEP

B1: dynamin 1, endogenous in mouse brain (protein, UniProt P39053 1-867)
chain: MGNRGMEDLIPLVNRLQDAFSAIGQNADLDLPQIAVVGGQSAGKSSVLENFVGRDFLPRGSGIVTRRPLVLQLVNSTTEYAEFLHCKGKKFTDFEEVRLEIEAETDRVTGTNKGISPVPINLRVYSPHVLNLTLVDLPGMTKVPVGDQPPDIEFQIRDMLMQFVTKENCLILAVSPANSDLANSDALKIAKEVDPQGQRTIGVITKLDLMDEGTDARDVLENKLLPLRRGYIGVVNRSQKDIDGKKDITAALAAERKFFLSHPSYRHLADRMGTPYLQKVLNQQLTNHIRDTLPGLRNKLQSQLLSIEKEVDEYKNFRPDDPARKTKALLQMVQQFAVDFEKRIEGSGDQIDTYELSGGARINRIFHERFPFELVKMEFDEKELRREISYAIKNIHGIRTGLFTPDMAFETIVKKQVKKIREPCLKCVDMVISELISTVRQCTKKLQQYPRLREEMERIVTTHIREREGRTKEQVMLLIDIELAYMNTNHEDFIGFANAQQRSNQMNKKKTSGNQDEILVIRKGWLTINNIGIMKGGSKEYWFVLTAENLSWYKDDEEKEKKYMLSVDNLKLRDVEKGFMSSKHIFALFNTEQRNVYKDYRQLELACETQEEVDSWKASFLRAGVYPERVGDKEKASETEENGSDSFMHSMDPQLERQVETIRNLVDSYMAIVNKTVRDLMPKTIMHLMINNTKEFIFSELLANLYSCGDQNTLMEESAEQAQRRDEMLRMYHALKEALSIIGDINTTTVSTPMPPPVDDSWLQVQSVPAGRRSPTSSPTPQRRAPAVPPARPGSRGPAPGPPPAGSALGGAPPVPSRPGASPDPFGPPPQVPSRPNRAPPGVPSLGAWRLNSPQGKHENRAGKARL
B2: Omni-CdGAP central domain (residues 174-683) (domain or fragment, UniProt Q2M1Z3 174-683)
chain: WAPNLLRSKEIEATGCNGDAAFLAVRVQQVVIEFILNHVDQIFNNGAPGSLENDENRPIMKSLTLPALSLPMKLVSLEEAQARSLATNHPARKERRENSLPEIVPPMGTLFHTVLELPDNKRKLSSKSKKWKSIFNLGRSGSDSKSKLSRNGSVFVRGQRLSVEKATIRPAKSMDSLCSVPVEGKETKGNFNRTVTTGGFFIPATKMHSTGTGSSCDLTKQEGEWGQEGMPPGAEGGFDVSSDRSHLQGAQARPPPEQLKVFRPVEDPESEQTAPKMLGMFYTSNDSPSKSVFTSSLFQMEPSPRNQRKALNISEPFAVSVPLRVSAVISTNSTPCRTPPKELQSLSSLEEFSFHGSESGGWPEEEKPLGAETSAASVPKKAGLEDAKAVPEAPGTVECSKGLSQEPGAHLEEKKTPESSLSSQHLNELEKRPNPEKVVEEGREAGEMESSTLQESPRARAEAVLLHEMDEDDLANALIWPEIQQELKIIESEEELSSLPPPALKTSPIQ
B3: Flag-Numb (protein, UniProt P49757 1-651)
chain: MNKLRQSFRRKKDVYVPEASRPHQWQTDEEGVRTGKCSFPVKYLGHVEVDESRGMHICEDAVKRLKAERKFFKGFFGKTGKKAVKAVLWVSADGLRVVDEKTKDLIVDQTIEKVSFCAPDRNFDRAFSYICRDGTTRRWICHCFMAVKDTGERLSHAVGCAFAACLERKQKREKECGVTATFDASRTTFTREGSFRVTTATEQAEREEIMKQMQDAKKAETDKIVVGSSVAPGNTAPSPSSPTSPTSDATTSLEMNNPHAIPRRHAPIEQLARQGSFRGFPALSQKMSPFKRQLSLRINELPSTMQRKTDFPIKNAVPEVEGEAESISSLCSQITNAFSTPEDPFSSAPMTKPVTVVAPQSPTFQANGTDSAFHVLAKPAHTALAPVAMPVRETNPWAHAPDAANKEIAATCSGTEWGQSSGAASPGLFQAGHRRTPSEADRWLEEVSKSVRAQQPQASAAPLQPVLQPPPPTAISQPASPFQGNAFLTSQPVPVGVVPALQPAFVPAQSYPVANGMPYPAPNVPVVGITPSQMVANVFGTAGHPQAAHPHQSPSLVRQQTFPHYEASSATTSPFFKPPAQHLNGSAAFNGVDDGRLASADRHTEVPTGTCPVDPFEAQWAALENKSKQRTNPSPTNPFSSDLQKTFEIEL
B4: Myc-POB1 (protein, UniProt Q8NFH8 1-660)
chain: MEAAAAAAAAAAAAAAAGGGCGSGPPPLLLSEGEQQCYSELFARCAGAAGGGPGSGPPEAARVAPGTATAAAGPVADLFRASQLPAETLHQITELCGAKRVGYFGPTQFYIALKLIAAAQSGLPVRIESIKCELPLPRFMMSKNDGEIRFGNPAELHGTKVQIPYLTTEKNSFKRMDDEDKQQETQSPTMSPLASPPSSPPHYQRVPLSHGYSKLRSSAEQMHPAPYEARQPLVQPEGSSSGGPGTKPLRHQASLIRSFSVERELQDNSSYPDEPWRITEEQREYYVNQFRSLQPDPSSFISGSVAKNFFTKSKLSIPELSYIWELSDADCDGALTLPEFCAAFHLIVARKNGYPLPEGLPPTLQPEYLQAAFPKPKWDCQLFDSYSESLPANQQPRDLNRMEKTSVKDMADLPVPNQDVTSDDKQALKSTINEALPKDVSEDPATPKDSNSLKARPRSRSYSSTSIEEAMKRGEDPPTPPPRPQKTHSRASSLDLNKVFQPSVPATKSGLLPPPPALPPRPCPSQSEQVSEAELLPQLSRAPSQAAESSPAKKDVLYSQPPSKPIRRKFRPENQATENQEPSTAASGPASAATMKPHPTVQKQSSKQKKAIQTAIRKNKEANAVLARLNSELQQQLKEVHQERIALENQLEQLRPVTVL

Legend:
[1] = target: GST-fused SH3A domain of ITSN1 (human) (UniProt Q15811); assay: pull-down; GST-SH3 domains (5-20 ug) on glutathione beads incubated 2 h at 4°C with lysate of mouse brain; 20 mM Tris-HCl pH 7.5, 0.5% NP40, 150 mM NaCl, 10% glycerol, 1 mM Na3VO4; immunoblot with antibodies against dynamin 1 or SOS1; only the target purified
[2] = target: GST-fused SH3E domain of ITSN1 (human) (UniProt Q15811); assay: as above
[3] = target: GST-fused SH3C domain of ITSN1 (human) (UniProt Q15811); assay: as above
[4] = target: GST-fused SH3A domain of ITSN1 (human) (UniProt Q15811); assay: pull-down; GST-SH3 domains (5-20 ug) on glutathione beads incubated 2 h at 4°C with lysate of HEK293 cells expressing the tagged protein; 20 mM Tris-HCl pH 7.5, 0.5% NP40, 150 mM NaCl, 10% glycerol, 1 mM Na3VO4; immunoblot with antibodies against tags; only the target purified
[5] = target: GST-fused SH3D domain of ITSN1 (human) (UniProt Q15811); assay: as above
[6] = target: GST-fused SH3B domain of ITSN1 (human) (UniProt Q15811); assay: as above
[7] = target: GST-fused SH3(A-E) domains of ITSN1 (human) (UniProt Q15811); assay: as above

Molecule	binding [1]	binding [2]	binding [3]	binding [5]	also measured
SOS1, endogenous in mouse brain (from UniProt Q62245 1-1319)	binds	binds	binds		
B1	binds	binds	binds		
B2				binds	binding [4]: binds; binding [6]: binds
B3				binds	
B4					binding [7]: binds
